This note sets out measurements from patent publication US20110097262A1.

Amino acid sequences for entries named in this document (tags omitted). Residues count along the entry.
UniProt P08581, residues 25-932: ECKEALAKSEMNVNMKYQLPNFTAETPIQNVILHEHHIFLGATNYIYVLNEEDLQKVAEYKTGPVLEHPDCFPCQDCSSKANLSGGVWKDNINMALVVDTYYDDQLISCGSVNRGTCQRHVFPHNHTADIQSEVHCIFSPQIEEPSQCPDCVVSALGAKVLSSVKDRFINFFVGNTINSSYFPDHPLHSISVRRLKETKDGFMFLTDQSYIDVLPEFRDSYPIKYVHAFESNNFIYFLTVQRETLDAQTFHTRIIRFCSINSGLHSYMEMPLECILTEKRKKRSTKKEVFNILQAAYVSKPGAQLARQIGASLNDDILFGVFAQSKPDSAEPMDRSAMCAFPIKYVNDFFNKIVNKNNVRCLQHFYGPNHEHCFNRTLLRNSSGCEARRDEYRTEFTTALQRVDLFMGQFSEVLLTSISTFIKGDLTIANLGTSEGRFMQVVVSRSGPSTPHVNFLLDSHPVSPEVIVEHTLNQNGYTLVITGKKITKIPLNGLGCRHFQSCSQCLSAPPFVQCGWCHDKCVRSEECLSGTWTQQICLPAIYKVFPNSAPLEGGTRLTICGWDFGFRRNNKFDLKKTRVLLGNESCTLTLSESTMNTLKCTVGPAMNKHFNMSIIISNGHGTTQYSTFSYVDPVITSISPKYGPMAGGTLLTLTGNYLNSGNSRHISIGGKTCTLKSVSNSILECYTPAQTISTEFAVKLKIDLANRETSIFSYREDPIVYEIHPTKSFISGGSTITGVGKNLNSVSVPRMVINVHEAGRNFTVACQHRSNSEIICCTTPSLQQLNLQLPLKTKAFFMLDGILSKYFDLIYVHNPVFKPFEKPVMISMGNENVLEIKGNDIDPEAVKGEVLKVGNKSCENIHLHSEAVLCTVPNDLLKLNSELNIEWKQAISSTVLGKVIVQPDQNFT

No constants are given. Whether binding was seen depends on the method and setting. Some entries that bind do so weakly or less than the wild type.

For this assay, the target named is recombinant dimeric c-Met from R&D Systems (UniProt P08581). The assay can be described thus: direct ELISA, recombinant dimeric c-Met coated at 1.25 µg/ml, anti-mouse IgG HRP detection. In general terms: In an ELISA, binding on a coated surface is turned into a signal by an enzyme label.

B1: murine 224G11 Mab (antibody, mouse IgG1, V domains shown)
VH: EVQLQQSGPELVKPGASVKISCKTSGYIFTAYTMHWVRQSLGESLDWIGGIKPNNGLANYNQKFKGKATLTVDKSSSTAYMDLRSLTSEDSAVYYCARSEITTEFDYWGQGTALTVSS
VL: DIVLTQSPASLAVSLGQRATISCRASESVDSYANSFMHWYQQKPGQPPKLLIYRASNLESGIPARFSGSGSRTDFTLTINPVEADDVATYYCQQSKEDPLTFGSGTKLEMKR
On to B1, for which the binding entry is listed as “binds”.
